Experimental data taken from the supplement of paper PMC8728848.
The list shows a part of the results.

What was measured:
Assay in all cases: glycan array binding signal (z-score within array); higher = stronger binding
Details in all cases: glycan notation: IUPAC condensed, linker removed
[1] = target: Kdn(a2-3)Gal(b1-4)Glc
Procedure, shortened: (§1)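 The Consortium for Functional Glycomics database supplied 3228 glycan arrays, of which those lacking an available protein sequence were dropped. The binding signal, a within-array Z-score, was averaged across arrays of the same protein sequence and across linkers. Negative scores can be read as non-binding.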

[2] = target: Kdn(a2-3)Gal(b1-4)GlcNAc
Procedure, shortened: as §1

[3] = target: Kdn(a2-3)Gal(b1-4)[Fuc(a1-3)]GlcNAc
Procedure, shortened: as §1

[4] = target: Kdn(a2-6)Gal(b1-4)GlcNAc
Procedure, shortened: as §1

[5] = target: Man(a1-2)Man(a1-2)Man(a1-3)Man
Procedure, shortened: as §1

[6] = target: Man(a1-2)Man(a1-2)Man(a1-6)[Man(a1-3)]Man
Procedure, shortened: as §1

[7] = target: Man(a1-2)Man(a1-3)Man
Procedure, shortened: as §1

[8] = target: Man(a1-2)Man(a1-3)[Man(a1-2)Man(a1-6)]Man
Procedure, shortened: as §1

[9] = target: Man(a1-2)Man(a1-3)[Man(a1-2)Man(a1-6)]Man(a1-6)[Man(a1-2)Man(a1-2)Man(a1-3)]Man
Procedure, shortened: as §1

[10] = target: Man(a1-2)Man(a1-3)[Man(a1-2)Man(a1-6)]Man(a1-6)[Man(a1-2)Man(a1-2)Man(a1-3)]Man(b1-4)GlcNAc(b1-4)GlcNAc
Procedure, shortened: as §1

[11] = target: Man(a1-2)Man(a1-3)[Man(a1-6)]Man(a1-6)[Man(a1-2)Man(a1-3)]Man(b1-4)GlcNAc(b1-4)GlcNAc
Procedure, shortened: as §1

[12] = target: Man(a1-2)Man(a1-6)[Man(a1-3)]Man(a1-6)[Man(a1-2)Man(a1-2)Man(a1-3)]Man
Procedure, shortened: as §1

[13] = target: Man(a1-2)Man(a1-6)[Man(a1-3)]Man(a1-6)[Man(a1-2)Man(a1-2)Man(a1-3)]Man(b1-4)GlcNAc(b1-4)GlcNAc
Procedure, shortened: as §1

[14] = target: Man(a1-3)[Man(a1-6)]Man
Procedure, shortened: as §1

[15] = target: Man(a1-3)[Man(a1-6)]Man(a1-6)[Man(a1-2)Man(a1-3)]Man(b1-4)GlcNAc(b1-4)GlcNAc
Procedure, shortened: as §1

[16] = target: Man(a1-3)[Man(a1-6)]Man(a1-6)[Man(a1-3)]Man
Procedure, shortened: as §1

[17] = target: Man(a1-3)[Man(a1-6)]Man(a1-6)[Man(a1-3)]Man(b1-4)GlcNAc(b1-4)GlcNAc
Procedure, shortened: as §1

[18] = target: Man(a1-3)[Man(a1-6)]Man(b1-4)GlcNAc(b1-4)GlcNAc
Procedure, shortened: as §1

[19] = target: Man(a1-3)[Man(a1-6)]Man(b1-4)GlcNAc(b1-4)[Fuc(a1-6)]GlcNAc
Procedure, shortened: as §1

[20] = target: Man(a1-6)Man
Procedure, shortened: as §1

[21] = target: Man(b1-4)GlcNAc
Procedure, shortened: as §1

[22] = target: MurNAc(b1-4)GlcNAc
Procedure, shortened: as §1

[23] = target: Neu5Ac(a2-3)Gal
Procedure, shortened: as §1

[24] = target: Neu5Ac(a2-3)Gal(b1-3)GalNAc
Procedure, shortened: as §1

[25] = target: Neu5Ac(a2-3)Gal(b1-3)GalNAc(b1-3)Gal(a1-4)Gal(b1-4)Glc
Procedure, shortened: as §1

[26] = target: Neu5Ac(a2-3)Gal(b1-3)GalNAc(b1-4)Gal(b1-4)Glc
Procedure, shortened: as §1

[27] = target: Neu5Ac(a2-3)Gal(b1-3)GalNAc(b1-4)[Neu5Ac(a2-3)]Gal(b1-4)Glc
Procedure, shortened: as §1

[28] = target: Neu5Ac(a2-3)Gal(b1-3)GalNAc(b1-4)[Neu5Ac(a2-8)Neu5Ac(a2-3)]Gal(b1-4)Glc
Procedure, shortened: as §1

[29] = target: Neu5Ac(a2-3)Gal(b1-3)GalNAc6S
Procedure, shortened: as §1

[30] = target: Neu5Ac(a2-3)Gal(b1-3)GlcNAc
Procedure, shortened: as §1

[31] = target: Neu5Ac(a2-3)Gal(b1-3)GlcNAc(b1-2)Man
Procedure, shortened: as §1

[32] = target: Neu5Ac(a2-3)Gal(b1-3)GlcNAc(b1-2)Man(a1-3)[GlcNAc(b1-4)][Neu5Ac(a2-3)Gal(b1-3)GlcNAc(b1-2)Man(a1-6)]Man(b1-4)GlcNAc(b1-4)GlcNAc
Procedure, shortened: as §1

[33] = target: Neu5Ac(a2-3)Gal(b1-3)GlcNAc(b1-2)Man(a1-3)[Neu5Ac(a2-3)Gal(b1-3)GlcNAc(b1-2)Man(a1-6)]Man(b1-4)GlcNAc(b1-4)GlcNAc
Procedure, shortened: as §1

[34] = target: Neu5Ac(a2-3)Gal(b1-3)GlcNAc(b1-2)[Neu5Ac(a2-3)Gal(b1-3)GlcNAc(b1-4)]Man(a1-6)[Neu5Ac(a2-3)Gal(b1-3)GlcNAc(b1-2)Man(a1-3)]Man(b1-4)GlcNAc(b1-4)GlcNAc
Procedure, shortened: as §1

[35] = target: Neu5Ac(a2-3)Gal(b1-3)GlcNAc(b1-3)Gal(b1-3)GlcNAc
Procedure, shortened: as §1

[36] = target: Neu5Ac(a2-3)Gal(b1-3)GlcNAc(b1-3)Gal(b1-4)GlcNAc
Procedure, shortened: as §1

[37] = target: Neu5Ac(a2-3)Gal(b1-3)GlcNAc(b1-3)GalNAc
Procedure, shortened: as §1

[38] = target: Neu5Ac(a2-3)Gal(b1-3)GlcNAc(b1-6)GalNAc
Procedure, shortened: as §1

B1: SAOUHSC 02783 (Staphylococcus aureus), Q5HD69 (protein)
chain: MIHSKKLTLGICLVLLIILIVGYVIMTKTNGRNAQIKDTFNQTLKLYPTKNLDDFYDKEGFRDQEFKKGDKGTWIVNSEMVIEPKGKDMETRGMVLYINRNTRTTKGYYFISEMTDDSNGRPKDDEKRYPVKMEHNKIIPTKPLPNDKLKKEIENFKFFVQYGNFKDINDYKDGDISYNPNVPSYSAKYQLNNDDYNVQQLRKRYDIPTKQAPKLLLKGDGDLKGSSVGSRSLEFTFVENKEENIYFTDSVQYTPSEDTRYESN
glycan array binding signal (z-score) [1]: -0.879 | glycan array binding signal (z-score) [2]: 0.212 | glycan array binding signal (z-score) [3]: -0.039 | glycan array binding signal (z-score) [4]: -0.224 | glycan array binding signal (z-score) [5]: -1.16 | glycan array binding signal (z-score) [6]: -0.389 | glycan array binding signal (z-score) [7]: -1.04 | glycan array binding signal (z-score) [8]: -2.14 | glycan array binding signal (z-score) [9]: 1.26 | glycan array binding signal (z-score) [10]: -0.676 | glycan array binding signal (z-score) [11]: 0.494 | glycan array binding signal (z-score) [12]: -1.35 | glycan array binding signal (z-score) [13]: -0.452 | glycan array binding signal (z-score) [14]: -0.081 | glycan array binding signal (z-score) [15]: 1.09 | glycan array binding signal (z-score) [16]: 0.139 | glycan array binding signal (z-score) [17]: 0.016 | glycan array binding signal (z-score) [18]: -0.854 | glycan array binding signal (z-score) [19]: -0.045 | glycan array binding signal (z-score) [20]: -1.7 | glycan array binding signal (z-score) [21]: -0.652 | glycan array binding signal (z-score) [22]: -0.233 | glycan array binding signal (z-score) [23]: -0.171 | glycan array binding signal (z-score) [24]: -0.054 | glycan array binding signal (z-score) [25]: -0.302 | glycan array binding signal (z-score) [26]: -0.302 | glycan array binding signal (z-score) [27]: 0.032 | glycan array binding signal (z-score) [28]: -0.869 | glycan array binding signal (z-score) [29]: -0.29 | glycan array binding signal (z-score) [30]: -0.344 | glycan array binding signal (z-score) [31]: -0.483 | glycan array binding signal (z-score) [32]: -0.381 | glycan array binding signal (z-score) [33]: 6.23 | glycan array binding signal (z-score) [34]: -0.866 | glycan array binding signal (z-score) [35]: -0.397 | glycan array binding signal (z-score) [36]: 1.36 | glycan array binding signal (z-score) [37]: 0.712 | glycan array binding signal (z-score) [38]: -0.175
